# Results published in PubChem BioAssay AID504834 (National Center for Advancing Translational Sciences (NCATS), 2011).
# Among all 320,000 compounds or so, about 22,000 (6.9%) were called active. Inconclusive means that the source gave no clear call. Such entries were picked first, then a sample of the others. The call rests on the fitted dose curve; in most records, active means well fitted inhibition curve with a large enough effect; inconclusive means small, poorly fitted or top-dose-only effect, or another doubt; inactive means no such curve, though single readings can be large or run the other way. Potencies beside an inconclusive call are fits to weak or partial responses and may not hold up.
# Assay: Primary qHTS for delayed death inhibitors of the malarial parasite plastid, 96 hour incubation
# Details: P. falciparum luciferase reporter growth; series mostly up to 28.7 µM; activity change, negative = inhibition: at the top concentration
# How it was run: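 Erythrocytes infected with luciferase-expressing P. falciparum were dispensed at 2% hematocrit and 0.05% parasitemia (final), then incubated with compounds 96 hours at 37 C in 5% CO2. Luminescence after detection reagent addition reported growth.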
# On the % scale 0 is the no-effect control and ±100 the full control effect; potency means the concentration at half of the fitted maximal effect.
Compound,Potency,"activity change, negative = inhibition"
CCCCCCSc1ccc([C@@H]2[C@H]3C(=O)N(CC)C(=O)[C@H]3[C@]3(C(=O)OC)CCCN23)cc1,active: 10.4 µM,
O=C(CCN1C(=O)/C(=C\c2cccs2)SC1=S)Nc1ccc(C(=O)O)cc1,"inconclusive: 0.0828 µM [inhibitor, full curve, poor fit]",
Cc1cc(Nc2nc3c(c(=O)n(C)c(=O)n3C)n2C)n(-c2ccc(Cl)cc2)n1,"inconclusive: 4.15 µM [inhibitor, partial curve]",
COC(=O)c1cc(=O)n(CCc2ccc(OC)c(OC)c2)c(=Nc2ccc(F)c(Cl)c2)s1,"inconclusive: 18.5 µM [inhibitor, single point]",
O=C(NCCc1ccc(Cl)cc1)c1ccc2nc(N3CCOCC3)sc2c1,"inconclusive: 9.28 µM [inhibitor, partial curve]",
COc1ccc(CNC(=O)/C=C/c2cc([N+](=O)[O-])ccc2OC(F)F)cc1OC,"inconclusive: 9.28 µM [inhibitor, partial curve]",
CCC(C)NS(=O)(=O)c1ccc(OCC(=O)NCc2ccco2)cc1 (stereo not drawn),"inconclusive: 18.5 µM [inhibitor, single point]",
CC(C)c1cc(C(=O)Nc2cccc(Cl)c2)no1,"inconclusive: 9.28 µM [inhibitor, partial curve, poor fit]",
C=CCn1c(-c2cccc(OC)c2)nc2nc3ccccc3nc21,,inactive: 5.19%
COC(=O)c1ccc(N/C=C/C(=O)c2ccccc2)cc1,active: 13.1 µM,
CCC(O)(c1ccccc1)C(CN1CCOCC1)c1ccccc1 (stereo not drawn),,inactive: -24.8%
O=C(N/N=C/c1ccc(OCC(=O)N2CCCCC2)cc1)c1ccccc1,"inconclusive: 7.38 µM [inhibitor, single point]",
CC(=O)Nc1ccc(S(=O)(=O)N/N=C/c2cccnc2)cc1,"inconclusive: 13.1 µM [inhibitor, partial curve, poor fit]",
CCNC(=S)NCCN1CCCCC1,active: 11.7 µM,
CSc1ccc(/C=C/C(=O)c2c(O)cc(C)oc2=O)cc1,"inconclusive: 10.4 µM [inhibitor, single point]",
CNc1nc(N/N=C/c2ccc([N+](=O)[O-])cc2)nc(Nc2ccccc2)n1,"inconclusive: 0.329 µM [inhibitor, full curve, poor fit]",
COc1ccc(Cl)cc1NC(=O)CN1CCC(n2nnc3cc(C)ccc32)CC1,,inactive: 8.09%
Cc1cccc(-c2nc(-c3ccncc3)no2)c1,active: 10.4 µM,
CS(=O)(=O)N1CCCC(C(=O)Nc2ccccc2C(F)(F)F)C1 (stereo not drawn),"inconclusive: 18.5 µM [inhibitor, single point]",
O=C(Nc1ccccc1C(=O)O)c1cc(S(=O)(=O)N2CCOCC2)c(Br)s1,"inconclusive: 14.7 µM [inhibitor, single point]",
O=C(CN1C(=O)/C(=C/c2ccccc2F)Sc2ccccc21)NCc1cccnc1,"inconclusive: 11.7 µM [inhibitor, single point]",
CCCSc1cc(NCCOC(C)=O)c([N+](=O)[O-])c2nonc12,"inconclusive: 18.5 µM [inhibitor, single point]",

Compound,Potency,"activity change, negative = inhibition"
Cn1c(NC(=O)COc2ccccc2)cc(=O)n(C)c1=O,"inconclusive: 1.47 µM [inhibitor, full curve]",
CCOC(=O)c1c(NC(=O)CSc2nnnn2-c2ccccc2OCC)sc2c1CC(C)(C)NC2(C)C,active: 8.28 µM,
CCOC(=O)c1cccc(NC(=O)CSc2nnc(C)n2CC2CCCO2)c1 (stereo not drawn),,inactive: 37.3%
CCCC(C(=O)NC1CCCC1)N(C(=O)Cn1nnc(-c2ccc(C)o2)n1)c1ccccc1F (stereo not drawn),"inconclusive: 20.8 µM [inhibitor, single point]",
COc1cccc(-c2nc(C(N)=O)c3[nH]c(=O)n(-c4ccccc4)c3n2)c1OC,"inconclusive: 9.28 µM [inhibitor, single point]",
COc1cc(OC)cc(C(=O)OCC(=O)c2ccc(S(=O)(=O)N3CCCCC3)cc2)c1,"inconclusive: 18.5 µM [inhibitor, single point]",
Cc1[nH]c2ccccc2c1/C=N/NS(=O)(=O)c1ccccc1,,inactive: 32.2%
O=C1C=C(/C=C/c2ccccc2)C[C@@H](c2ccc(F)cc2)C1,"inconclusive: 18.5 µM [inhibitor, single point]",
O=C(COc1ccc2oc(-c3ccccc3)cc(=O)c2c1)Nc1ccccc1,active: 3.7 µM,
COCCN(C(=O)CSc1nnc(-c2ccccc2OC)o1)c1c(N)n(CC(C)C)c(=O)[nH]c1=O,"inconclusive: 18.5 µM [inhibitor, single point]",
O=C(C1=C[C@@H](c2ccc(Br)cc2)C[C@@H](OCCCCO)O1)N1CCN(Cc2ccccc2)CC1,active: 11.7 µM,
COc1cc(-n2c(=O)c3ccccc3n(Cc3cc(=O)n4ccccc4n3)c2=O)cc(OC)c1OC,"inconclusive: 14.7 µM [inhibitor, partial curve, poor fit]",
O=C(CN(C(=O)CCC(=O)Nc1ccccn1)c1ccc(F)cc1)NCc1ccc(F)cc1,"inconclusive: 4.15 µM [inhibitor, single point]",
CN1C(=O)Cn2c1nc1ccccc12,"inconclusive: 10.4 µM [inhibitor, single point]",
C[N+](C)(C)CCCNC(=O)c1ccc(/C=N/O)nc1,"inconclusive: 16.5 µM [inhibitor, single point]",
Cc1cc(-c2csc(NC(=O)c3cc4ccccc4o3)n2)c(C)n1C,,inactive: -19.3%
O=C(COc1ccc(Cl)cc1Br)Nc1ccncc1,"inconclusive: 9.28 µM [inhibitor, single point]",
Cc1cccc(/C(N)=N/OC(=O)COc2ccc(Cl)cc2)c1,active: 2.94 µM,
CCOC(=O)/C(C#N)=C/c1cn(CCC(=O)O)nc1-c1ccc(F)cc1,"inconclusive: 0.0522 µM [inhibitor, full curve, poor fit]",
CCC(=O)N1CCC2(CC1)Oc1ccc(F)cc1C(=O)C21CC(c2ccc(Cl)cc2)=NO1 (stereo not drawn),"inconclusive: 18.5 µM [inhibitor, single point]",
CN1CCN(c2cnn(-c3ccccc3)c(=O)c2Br)CC1,"inconclusive: 0.0052 µM [inhibitor, full curve, poor fit]",

# 11 structures already listed, sorted by molecular weight, rising.
Compound,Potency,"activity change, negative = inhibition"
CN1C(=O)Cn2c1nc1ccccc12,"inconclusive: 10.4 µM [inhibitor, single point]",
C[N+](C)(C)CCCNC(=O)c1ccc(/C=N/O)nc1,"inconclusive: 16.5 µM [inhibitor, single point]",
Cn1c(NC(=O)COc2ccccc2)cc(=O)n(C)c1=O,"inconclusive: 1.47 µM [inhibitor, full curve]",
Cc1cccc(/C(N)=N/OC(=O)COc2ccc(Cl)cc2)c1,active: 2.94 µM,
O=C(COc1ccc(Cl)cc1Br)Nc1ccncc1,"inconclusive: 9.28 µM [inhibitor, single point]",
Cc1cc(-c2csc(NC(=O)c3cc4ccccc4o3)n2)c(C)n1C,,inactive: -19.3%
CCOC(=O)/C(C#N)=C/c1cn(CCC(=O)O)nc1-c1ccc(F)cc1,"inconclusive: 0.0522 µM [inhibitor, full curve, poor fit]",
COc1cc(OC)cc(C(=O)OCC(=O)c2ccc(S(=O)(=O)N3CCCCC3)cc2)c1,"inconclusive: 18.5 µM [inhibitor, single point]",
COc1cc(-n2c(=O)c3ccccc3n(Cc3cc(=O)n4ccccc4n3)c2=O)cc(OC)c1OC,"inconclusive: 14.7 µM [inhibitor, partial curve, poor fit]",
O=C(C1=C[C@@H](c2ccc(Br)cc2)C[C@@H](OCCCCO)O1)N1CCN(Cc2ccccc2)CC1,active: 11.7 µM,
CCOC(=O)c1c(NC(=O)CSc2nnnn2-c2ccccc2OCC)sc2c1CC(C)(C)NC2(C)C,active: 8.28 µM,
